{"sequences": {"note": "Sequences of proteins named here, by UniProt entry; tags and fusion partners are left off. A change or cut given only in a name is not applied to a line headed by its entry.", "UniProt Q60629": "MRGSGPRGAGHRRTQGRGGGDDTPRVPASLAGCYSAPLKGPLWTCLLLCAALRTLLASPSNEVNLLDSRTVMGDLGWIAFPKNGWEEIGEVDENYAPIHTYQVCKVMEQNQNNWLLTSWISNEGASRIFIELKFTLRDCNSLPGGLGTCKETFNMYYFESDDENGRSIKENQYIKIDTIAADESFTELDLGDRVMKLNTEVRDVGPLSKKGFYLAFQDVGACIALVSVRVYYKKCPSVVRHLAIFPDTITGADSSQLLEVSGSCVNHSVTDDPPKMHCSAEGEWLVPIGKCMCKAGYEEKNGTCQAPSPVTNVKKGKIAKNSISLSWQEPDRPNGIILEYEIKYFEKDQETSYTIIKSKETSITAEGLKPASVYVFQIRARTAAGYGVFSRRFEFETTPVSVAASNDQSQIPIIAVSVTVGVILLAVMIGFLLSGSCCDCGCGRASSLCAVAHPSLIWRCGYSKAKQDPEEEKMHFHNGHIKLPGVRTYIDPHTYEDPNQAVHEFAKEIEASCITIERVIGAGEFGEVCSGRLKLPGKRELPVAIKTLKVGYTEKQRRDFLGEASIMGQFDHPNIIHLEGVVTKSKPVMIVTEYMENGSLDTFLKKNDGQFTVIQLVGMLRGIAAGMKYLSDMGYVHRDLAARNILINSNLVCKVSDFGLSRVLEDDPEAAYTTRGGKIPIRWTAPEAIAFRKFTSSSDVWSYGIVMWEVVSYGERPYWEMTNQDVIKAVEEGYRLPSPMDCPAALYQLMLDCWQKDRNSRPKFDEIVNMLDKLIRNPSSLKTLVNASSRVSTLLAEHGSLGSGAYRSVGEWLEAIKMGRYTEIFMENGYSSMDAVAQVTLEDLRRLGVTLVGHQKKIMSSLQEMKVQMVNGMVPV"}, "source": "patent US20140377288A1", "about": "(University of Texas, published 2014)", "binders": {"B1": {"name": "11C12 monoclonal anti-EphA5 antibody (antibody, mouse IgG1, V domains shown)", "VH": "EVTLKESGGGLVQPGGSRKLSCAASGFTFSTFGIHWVRQAPEKGLEWVAYISGASTTIYYADTVKGRFTISRDNPKNTLFLQMTSLRSEDTAMYYCARYGTSFPYGLDYWGQGTSVTVSS", "VL": "DIVMTQSPGSLAVSLGQRATISCKASQSVDYDGDSYMNWYQQKPGQPPKLLIYGASNLESGIPARFSGSGSGTDFTLNIHPVEEEDAASYYCQQSNEDPFTFGSGTKLEIK", "notes": "Murine IgG1 monoclonal antibody from a hybridoma; also called monoclonal antibody 11C12; 11C12 antibody"}}, "target": "murine EphA5 protein (mouse) (UniProt Q60629)", "experiment": "ELISA with decreasing amounts of target protein", "note": "Results are given in words; binding and its absence hold for the method and conditions named.", "data": [{"binder": "B1", "values": [{"measurement": "binding", "result": "no binding"}]}]}
